Test results published in publication PMC7181697.

Key:
MBP-SHLD2(1–60) (human) [1] = biological target: T1, MBP-SHLD2(1–60) (human) (UniProt Q86V20); test: SEC; Superdex 200 Increase 10/300 GL, 20 mM Tris/HCl pH 8.0, 150 mM NaCl, 1% glycerol, 1 mM TCEP; proteins mixed and incubated 10 min on ice; 0.5 ml fractions on SDS-PAGE, Coomassie; both purified
T1 sequence: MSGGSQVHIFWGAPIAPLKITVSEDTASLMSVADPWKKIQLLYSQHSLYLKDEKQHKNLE

MBP-SHLD2(1–60) (human) [2] = biological target: T1, MBP-SHLD2(1–60) (human); test: pull-down; 30 μg MBP-SHLD2(1-60) on dextrin beads, 20 μg REV7-SHLD3(1-82) with or without 20 μg REV7 added for 30 min; washed with 20 mM Tris pH 8.0, 500 mM NaCl, 1% glycerol, 0.5 mM TCEP, 0.5% NP-40; SDS-PAGE, Coomassie; both purified

REV7^K129A-SHLD3(1–82)-REV7^K129A (human) (complex)
binding (MBP-SHLD2(1–60) (human) [1]): binds

REV7^W171A-SHLD3(1–82) (human) (complex)
binding (MBP-SHLD2(1–60) (human) [1]): binds

REV7^WT-SHLD3(1–82) (human) (complex)
binding (MBP-SHLD2(1–60) (human) [1]): binds | binding (MBP-SHLD2(1–60) (human) [2]): binds

REV7^Y63A-SHLD3(1–82) (human) (complex)
binding (MBP-SHLD2(1–60) (human) [1]): binds

Results are given in words; binding and its absence hold for the method and conditions named. Binding can be weak; no strength is given. Tags and fused reporters may be left off the sequences shown.
